Measured values as given in article doi:10.1101/2021.06.08.447515.

The chains behind the UniProt entries cited, without tags or fusion partners. Where a name states a change or a piece, a line headed by the entry shows the natural chain unless it says otherwise.
UniProt Q27335: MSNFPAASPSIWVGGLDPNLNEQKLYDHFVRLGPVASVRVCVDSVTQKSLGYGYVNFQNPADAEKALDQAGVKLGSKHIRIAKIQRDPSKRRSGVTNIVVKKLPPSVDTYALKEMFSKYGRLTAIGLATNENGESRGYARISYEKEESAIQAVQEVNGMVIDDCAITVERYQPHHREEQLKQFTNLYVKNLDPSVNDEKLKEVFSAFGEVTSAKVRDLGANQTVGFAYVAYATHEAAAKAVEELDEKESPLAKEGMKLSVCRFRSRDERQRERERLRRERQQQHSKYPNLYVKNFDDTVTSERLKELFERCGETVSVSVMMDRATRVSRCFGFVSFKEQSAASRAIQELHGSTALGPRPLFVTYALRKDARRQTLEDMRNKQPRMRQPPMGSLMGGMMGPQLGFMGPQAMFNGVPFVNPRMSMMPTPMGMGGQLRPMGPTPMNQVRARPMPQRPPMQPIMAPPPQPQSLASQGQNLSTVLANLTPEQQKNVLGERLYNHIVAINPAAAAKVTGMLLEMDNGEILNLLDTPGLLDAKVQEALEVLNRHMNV

Assays:
[1] = target: T1, recombinant canonical H2B (His-tag) (T. cruzi (CL Brener strain)) (UniProt B5U6T3); assay: affinity purification with mass spectrometry
T1 sequence: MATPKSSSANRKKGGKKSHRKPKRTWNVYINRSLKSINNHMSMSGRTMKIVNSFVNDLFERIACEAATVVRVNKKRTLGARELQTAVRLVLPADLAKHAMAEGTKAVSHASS

[2] = target: T1, recombinant canonical H2B (His-tag) (T. cruzi (CL Brener strain)); assay: affinity purification with mass spectrometry; remark: listed apart in the source

Substance	binding [1]	binding [2]
double RNA binding domain protein 3	binds	binds
high mobility group protein TDP1 (T. cruzi (endogenous in TCTs))	–	binds
lupus La protein homolog (T. cruzi (endogenous in TCTs))	–	binds
polyadenylate-binding protein (from UniProt Q27335)	binds	binds
tousled-like kinase II (T. cruzi (endogenous in TCTs))	–	binds

Like-named read-outs stand apart in the source and are kept apart here. Results are given in words; binding and its absence hold for the method and conditions named. In cells and extracts the contact can be indirect. A yes stands for co-enrichment or nearness to the bait. Other partners may have been found. Tags and fused reporters may be left off the sequences shown.
